Data source: PubChem BioAssay AID504764 (Drosophila RNAi Screening Center, 2011)

Assay: 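Knock-downs that raise or lower a Notch target reporter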 (primary screen)
Cells: Drosophila Kc167 cells
Reagent: long dsRNA against Drosophila genes
Time to read-out: about 5 days (4 days dsRNA, then 24 h after transfection)
Conditions: transfection of constitutively active membrane-tethered Notch lacking the extracellular domain, read 24 h later
Read-out: 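Firefly luciferase from an E(spl)m3 reporter with active Notch, plus control-promoter and uninduced reporter wells for normalisation; unnormalised counts, duplicate wells a and b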
Scale: induced reporter light, run 1, well a and induced reporter light, run 1, well b: higher = more light from the Notch target reporter with active Notch; control promoter light, run 1, well a and control promoter light, run 1, well b: higher = more light from the viral control promoter (cell number, transfection, viability); uninduced reporter light, run 1, well a: higher = more light from the Notch target reporter without active Notch
Hit rule: 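Wells with low control signal or poorly matching duplicates excluded; duplicates averaged; per source plate, z beyond ±2 for induced/control log2 ratio or beyond ±1.8 for induced/uninduced marks a hit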
Meaning of the calls: active = modifier hit (raised or lowered Notch signal); inactive = not a hit
The deposit covers about 22,000 reagents; this is a random part of those that have a named target and a result. In the full data, 403 (1.9%) were called active. 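Unnormalised raw counts per well; ratio z-scores behind the hit calls and whether each hit raises or lowers signal are not deposited.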 Names joined by + are all predicted targets of the reagent. Not stated in the record: the amount of reagent.

| Gene | amplicon | induced reporter light, run 1, well a | induced reporter light, run 1, well b | control promoter light, run 1, well a | control promoter light, run 1, well b | uninduced reporter light, run 1, well a | activity call |
| --- | --- | --- | --- | --- | --- | --- | --- |
| Dnai2 (GeneID 39318) | DRSC10575 | 1.30e5 | 1.66e5 | 1.87e5 | 1.46e5 | 6610 | inactive |
| POSH (GeneID 36990) | DRSC07499 | 91100 | 75755 | 1.19e5 | 90255 | 8192 | inactive |
| alpha-Man-Ia (GeneID 31957) | DRSC17642 | 34490 | 28620 | 23180 | 20770 | 3895 | inactive |
| alpha-Man-Ia (GeneID 31957) | DRSC18162 | 94140 | 94325 | 1.34e5 | 1.75e5 | 7900 | inactive |
| alpha-Man-Ia (GeneID 31957) | DRSC18163 | 1.06e5 | 1.02e5 | 1.53e5 | 1.65e5 | 7935 | inactive |
| alpha-Man-Ia (GeneID 31957) | DRSC18735 | 1.48e5 | 1.26e5 | 2.22e5 | 1.75e5 | 9380 | inactive |
| Grip84 (GeneID 32946) | DRSC20248 | 1.76e5 | 1.70e5 | 1.68e5 | 1.05e5 | 13078 | inactive |
| CG3942 (GeneID 41489) | DRSC15525 | 61290 | 66425 | 49550 | 50365 | 3915 | inactive |
| CG4098 (GeneID 39854) | DRSC10399 | 1.87e5 | 1.58e5 | 2.32e5 | 1.71e5 | 9080 | inactive |
| CG4836 (GeneID 42387) | DRSC15659 | 1.78e5 | 1.73e5 | 2.16e5 | 2.55e5 | 14690 | inactive |
| CG9782 (GeneID 32632) | DRSC19145 | 76635 | 90290 | 73155 | 63270 | 9215 | inactive |
| CG9782 (GeneID 32632) | DRSC20209 | 78025 | 73150 | 91285 | 73650 | 9605 | inactive |
| DAT (GeneID 36849) | DRSC07394 | 96920 | 77905 | 1.09e5 | 1.12e5 | 7410 | inactive |
| Cyp4d2 (GeneID 31192) | DRSC18458 | 1.82e5 | 1.90e5 | 3.02e5 | 2.53e5 | 12385 | inactive |
| CG31253 + CG31131 | DRSC13839 | 1.71e5 | 1.78e5 | 1.98e5 | 2.31e5 | 16080 | inactive |
| Pli (GeneID 42821) | DRSC16792 | 1.70e5 | 1.99e5 | 2.50e5 | 2.46e5 | 15295 | inactive |
| CG5608 (GeneID 41543) | DRSC15841 | 1.77e5 | 1.21e5 | 90690 | 1.02e5 | 10030 | inactive |
| KFase (GeneID 33907) | DRSC03258 | 1.93e5 | 1.26e5 | 1.94e5 | 1.62e5 | 10750 | inactive |
| CG8517 (GeneID 37268) | DRSC07205 | 97440 | 95160 | 1.18e5 | 1.43e5 | 8365 | inactive |
| CG42500 (GeneID 50032) | DRSC14822 | 2.96e5 | 2.78e5 | 2.65e5 | 2.76e5 | 22005 | inactive |
| lola (GeneID 44548) | DRSC05220 | 1.95e5 | 1.72e5 | 1.65e5 | 1.63e5 | 18790 | inactive |
| lola (GeneID 44548) | DRSC05221 | 2.18e5 | 2.31e5 | 2.73e5 | 3.17e5 | 20625 | inactive |
| lola (GeneID 44548) | DRSC05222 | 2.56e5 | 2.57e5 | 3.77e5 | 3.97e5 | 21155 | inactive |
| lola (GeneID 44548) | DRSC05223 | 97680 | 83745 | 77830 | 84750 | 15545 | inactive |
| lola (GeneID 44548) | DRSC05224 | 2.69e5 | 3.30e5 | 4.03e5 | 3.19e5 | 18865 | inactive |
| lola (GeneID 44548) | DRSC06738 | 1.18e5 | 1.26e5 | 89485 | 86375 | 14145 | inactive |
| lola (GeneID 44548) | DRSC06739 | 65245 | 83285 | 74085 | 76610 | 11105 | inactive |
| lola (GeneID 44548) | DRSC06740 | 96390 | 91345 | 66400 | 66500 | 8200 | inactive |
| lola (GeneID 44548) | DRSC06741 | 2.44e5 | 2.18e5 | 2.49e5 | 2.64e5 | 19688 | inactive |
| lola (GeneID 44548) | DRSC06742 | 11740 | 10885 | 13130 | 12310 | 3580 | inactive |
| lola (GeneID 44548) | DRSC07646 | 1.80e5 | 1.64e5 | 1.54e5 | 1.52e5 | 12570 | inactive |
| lola (GeneID 44548) | DRSC07647 | 1.12e5 | 88720 | 1.12e5 | 90875 | 9650 | inactive |
| CG9933 (GeneID 34700) | DRSC03276 | 1.30e5 | 1.54e5 | 1.46e5 | 1.49e5 | 13200 | inactive |
| atk (GeneID 40266) | DRSC11418 | 2.09e5 | 2.42e5 | 2.71e5 | 2.67e5 | 16370 | inactive |
| atk (GeneID 40266) | DRSC11769 | 1.65e5 | 1.34e5 | 1.18e5 | 1.11e5 | 7430 | inactive |
| Kpc1 (GeneID 41826) | DRSC16107 | 1.65e5 | 1.86e5 | 1.20e5 | 1.26e5 | 10280 | inactive |
| vkg (GeneID 33726) | DRSC03632 | 97620 | 69775 | 70395 | 61860 | 5570 | inactive |
| CG7840 (GeneID 34136) | DRSC03075 | 60805 | 70600 | 54970 | 60035 | 3990 | inactive |
| CG5174 (GeneID 37117) | DRSC06920 | 1.01e5 | 78445 | 1.43e5 | 1.82e5 | 7440 | inactive |
| CG10996 (GeneID 32345) | DRSC19363 | 1.08e5 | 98315 | 1.34e5 | 1.26e5 | 15450 | inactive |
| CG10565 (GeneID 40332) | DRSC11620 | 95965 | 96075 | 42275 | 66500 | 7940 | inactive |
| CG1161 (GeneID 40638) | DRSC12180 | 22475 | 28505 | 10180 | 8700 | 2750 | inactive |

Next part; the last 6 above are carried over.
| Gene | amplicon | induced reporter light, run 1, well a | induced reporter light, run 1, well b | control promoter light, run 1, well a | control promoter light, run 1, well b | uninduced reporter light, run 1, well a | activity call |
| --- | --- | --- | --- | --- | --- | --- | --- |
| vkg (GeneID 33726) | DRSC03632 | 97620 | 69775 | 70395 | 61860 | 5570 | inactive |
| CG7840 (GeneID 34136) | DRSC03075 | 60805 | 70600 | 54970 | 60035 | 3990 | inactive |
| CG5174 (GeneID 37117) | DRSC06920 | 1.01e5 | 78445 | 1.43e5 | 1.82e5 | 7440 | inactive |
| CG10996 (GeneID 32345) | DRSC19363 | 1.08e5 | 98315 | 1.34e5 | 1.26e5 | 15450 | inactive |
| CG10565 (GeneID 40332) | DRSC11620 | 95965 | 96075 | 42275 | 66500 | 7940 | inactive |
| CG1161 (GeneID 40638) | DRSC12180 | 22475 | 28505 | 10180 | 8700 | 2750 | inactive |
| eIF2Bbeta (GeneID 31256) | DRSC18465 | 1.12e5 | 1.19e5 | 1.78e5 | 1.85e5 | 6880 | inactive |
| RpL14 (GeneID 38983) | DRSC11269 | 10020 | 10195 | 13865 | 14850 | 700 | inactive |
| Lsp1beta (GeneID 33274) | DRSC00757 | 1.90e5 | 1.99e5 | 1.72e5 | 1.83e5 | 20120 | inactive |
| mei-P26 (GeneID 45775) | DRSC17735 | 6715 | 6200 | 9585 | 7182 | 2910 | inactive |
| Boh1 (GeneID 338395) | DRSC14487 | 1.63e5 | 1.73e5 | 2.35e5 | 2.30e5 | 11505 | inactive |
| CG33792 (GeneID 3772111) | DRSC05355 | 1.14e5 | 1.06e5 | 1.91e5 | 2.61e5 | 9542 | inactive |
| Nmdar2 (GeneID 31107) | DRSC18183 | 1.14e5 | 1.19e5 | 2.02e5 | 1.82e5 | 9010 | inactive |
| Nmdar2 (GeneID 31107) | DRSC18511 | 1.14e5 | 1.03e5 | 1.76e5 | 2.27e5 | 7360 | inactive |
| Nmdar2 (GeneID 31107) | DRSC18569 | 1.36e5 | 1.06e5 | 1.68e5 | 2.03e5 | 9870 | inactive |
| CG10958 (GeneID 31736) | DRSC17768 | 2.92e5 | 2.88e5 | 3.96e5 | 3.86e5 | 16970 | inactive |
| CG32576 (GeneID 318095) | DRSC19136 | 98755 | 1.14e5 | 1.20e5 | 97635 | 7670 | inactive |
| CG9072 (GeneID 32443) | DRSC20147 | 89855 | 78930 | 97535 | 76100 | 12970 | inactive |
| Rab9 (GeneID 35221) | DRSC03281 | 49095 | 31975 | 41225 | 45400 | 2660 | inactive |
| Prim1 (GeneID 38942) | DRSC11137 | 1.56e5 | 1.97e5 | 1.88e5 | 1.78e5 | 14350 | inactive |
| CG32591 (GeneID 318104) | DRSC19063 | 91095 | 96590 | 98770 | 91940 | 6960 | inactive |
| CG8813 (GeneID 33490) | DRSC00706 | 2.34e5 | 2.04e5 | 1.94e5 | 1.93e5 | 15605 | inactive |
| Npc2d (GeneID 41232) | DRSC14551 | 78825 | 82795 | 78910 | 61230 | 4220 | inactive |
| eIF3f2 (GeneID 35547) | DRSC04903 | 2.00e5 | 1.72e5 | 1.79e5 | 1.90e5 | 17060 | inactive |
| Tmlh (GeneID 42421) | DRSC15563 | 1.46e5 | 1.43e5 | 1.71e5 | 1.61e5 | 10595 | inactive |
| stac (GeneID 43002) | DRSC13693 | 1.89e5 | 1.77e5 | 2.15e5 | 2.15e5 | 17185 | inactive |
| stac (GeneID 43002) | DRSC14392 | 1.52e5 | 1.50e5 | 1.80e5 | 1.94e5 | 15460 | inactive |
| CalpC (GeneID 32597) | DRSC19873 | 83210 | 78510 | 99420 | 99525 | 11245 | inactive |
